Data published in publication PMC6328613.
These are yes or no findings as the source states them, for the method shown. For some assays here: Binding seen in cells or lysates may run through a third protein. Some results given as binding are weak or reduced against the parent protein; the word gives no strength. For some assays here: Where a sequence is shown, tags or fusion partners need not be part of it.

Protein sequences, listed by entry. Tags and fused reporters are not part of them. Lines headed by an entry give the natural chain unless they say otherwise; changes in a name come on top. Chains listed by the source or under a name are the forms on record and can include a tag or linker.
UniProt P84077: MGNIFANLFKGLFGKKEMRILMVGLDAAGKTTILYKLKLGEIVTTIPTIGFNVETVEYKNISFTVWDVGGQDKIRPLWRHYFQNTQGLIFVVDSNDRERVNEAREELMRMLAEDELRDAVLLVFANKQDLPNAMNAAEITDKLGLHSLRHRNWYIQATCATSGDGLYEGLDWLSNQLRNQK
GST-tagged Δ14Arf1 Q71L (P84077, form named): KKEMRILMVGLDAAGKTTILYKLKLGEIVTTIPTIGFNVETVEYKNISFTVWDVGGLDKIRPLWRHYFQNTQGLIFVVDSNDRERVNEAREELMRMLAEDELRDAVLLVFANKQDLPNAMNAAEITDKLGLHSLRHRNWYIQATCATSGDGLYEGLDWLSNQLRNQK
GST-tagged Δ14Arf3-GTP (Q71L) (P61204, form named): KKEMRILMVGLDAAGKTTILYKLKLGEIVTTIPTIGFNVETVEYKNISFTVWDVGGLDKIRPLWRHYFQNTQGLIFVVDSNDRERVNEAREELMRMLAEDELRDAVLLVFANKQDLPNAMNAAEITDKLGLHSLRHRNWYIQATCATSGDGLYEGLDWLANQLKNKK

Key:
GST-tagged Δ14Arf1 Q71L [1] = molecular target: GST-tagged Δ14Arf1 Q71L (UniProt P84077); experiment: pull-down; direct binding of GORAB and Scyl1 to Arf1 (Supplementary Figure 1G); set-up not shown; both purified
[2] = molecular target: GST-tagged Δ14Arf3-GTP (Q71L) (UniProt P61204); experiment: pull-down; pull-downs of GORAB and Scyl1 with GTP- and GDP-locked Arfs (Supplementary Figure 1F); set-up not shown
GST-tagged Δ14Arf1 Q71L [3] = molecular target: GST-tagged Δ14Arf1 Q71L (UniProt P84077); experiment: as above
[4] = molecular target: Scyl1 (yeast two-hybrid fusion) (UniProt Q96KG9); experiment: two-hybrid; Matchmaker Gold system, yeast strain Y2HGold; AD prey and BD bait co-transformed; growth on quadruple drop-out (SD/-Ade/-His/-Leu/-Trp) plates at 30 °C
[5] = molecular target: recombinant N-myristoylated human ARF1 (human) (UniProt P84077); experiment: liposome recruitment assay; Golgi-lipid liposomes (200 nm) with 10 µM MBP-Scyl1, 10 µM recombinant coatomer, 5 µM myr-ARF1, some with 100 µM GTPγS, 37 °C 20 min; flotation on sucrose, western blotting; both purified

B1: Scyl1 (construct and source of Supplementary Figure 1 not shown) (protein, UniProt Q96KG9 1-808)
chain: MWFFARDPVRDFPFELIPEPPEGGLPGPWALHRGRKKATGSPVSIFVYDVKPGAEEQTQVAKAAFKRFKTLRHPNILAYIDGLETEKCLHVVTEAVTPLGIYLKARVEAGGLKELEISWGLHQIVKALSFLVNDCSLIHNNVCMAAVFVDRAGEWKLGGLDYMYSAQGNGGGPPRKGIPELEQYDPPELADSSGRVVREKWSADMWRLGCLIWEVFNGPLPRAAALRNPGKIPKTLVPHYCELVGANPKVRPNPARFLQNCRAPGGFMSNRFVETNLFLEEIQIKEPAEKQKFFQELSKSLDAFPEDFCRHKVLPQLLTAFEFGNAGAVVLTPLFKVGKFLSAEEYQQKIIPVVVKMFSSTDRAMRIRLLQQMEQFIQYLDEPTVNTQIFPHVVHGFLDTNPAIREQTVKSMLLLAPKLNEANLNVELMKHFARLQAKDEQGPIRCNTTVCLGKIGSYLSASTRHRVLTSAFSRATRDPFAPSRVAGVLGFAATHNLYSMNDCAQKILPVLCGLTVDPEKSVRDQAFKAIRSFLSKLESVSEDPTQLEEVEKDVHAASSPGMGGAAASWAGWAVTGVSSLTSKLIRSHPTTAPTETNIPQRPTPEGVPAPAPTPVPATPTTSGHWETQEEDKDTAEDSSTADRWDDEDWGSLEQEAESVLAQQDDWSTGGQVSRASQVSNSDHKSSKSPESDWSSWEAEGSWEQGWQEPSSQEPPPDGTRLASEYNWGGPESSDKGDPFATLSARPSTQPRPDSWGEDNWEGLETDSRQVKAELARKKREERRREMEAKRAERKVAKGPMKLGARKLD
GST-tagged Δ14Arf1 Q71L [1]
  binding: binds
[2]
  binding: binds
GST-tagged Δ14Arf1 Q71L [3]
  binding: binds

B2: Scyl1 (yeast two-hybrid fusion) (protein, UniProt Q96KG9 1-808)
chain: MWFFARDPVRDFPFELIPEPPEGGLPGPWALHRGRKKATGSPVSIFVYDVKPGAEEQTQVAKAAFKRFKTLRHPNILAYIDGLETEKCLHVVTEAVTPLGIYLKARVEAGGLKELEISWGLHQIVKALSFLVNDCSLIHNNVCMAAVFVDRAGEWKLGGLDYMYSAQGNGGGPPRKGIPELEQYDPPELADSSGRVVREKWSADMWRLGCLIWEVFNGPLPRAAALRNPGKIPKTLVPHYCELVGANPKVRPNPARFLQNCRAPGGFMSNRFVETNLFLEEIQIKEPAEKQKFFQELSKSLDAFPEDFCRHKVLPQLLTAFEFGNAGAVVLTPLFKVGKFLSAEEYQQKIIPVVVKMFSSTDRAMRIRLLQQMEQFIQYLDEPTVNTQIFPHVVHGFLDTNPAIREQTVKSMLLLAPKLNEANLNVELMKHFARLQAKDEQGPIRCNTTVCLGKIGSYLSASTRHRVLTSAFSRATRDPFAPSRVAGVLGFAATHNLYSMNDCAQKILPVLCGLTVDPEKSVRDQAFKAIRSFLSKLESVSEDPTQLEEVEKDVHAASSPGMGGAAASWAGWAVTGVSSLTSKLIRSHPTTAPTETNIPQRPTPEGVPAPAPTPVPATPTTSGHWETQEEDKDTAEDSSTADRWDDEDWGSLEQEAESVLAQQDDWSTGGQVSRASQVSNSDHKSSKSPESDWSSWEAEGSWEQGWQEPSSQEPPPDGTRLASEYNWGGPESSDKGDPFATLSARPSTQPRPDSWGEDNWEGLETDSRQVKAELARKKREERRREMEAKRAERKVAKGPMKLGARKLD
[4]
  binding: binds

B3: MBP-Scyl1 (protein, UniProt Q96KG9 1-808)
chain: MWFFARDPVRDFPFELIPEPPEGGLPGPWALHRGRKKATGSPVSIFVYDVKPGAEEQTQVAKAAFKRFKTLRHPNILAYIDGLETEKCLHVVTEAVTPLGIYLKARVEAGGLKELEISWGLHQIVKALSFLVNDCSLIHNNVCMAAVFVDRAGEWKLGGLDYMYSAQGNGGGPPRKGIPELEQYDPPELADSSGRVVREKWSADMWRLGCLIWEVFNGPLPRAAALRNPGKIPKTLVPHYCELVGANPKVRPNPARFLQNCRAPGGFMSNRFVETNLFLEEIQIKEPAEKQKFFQELSKSLDAFPEDFCRHKVLPQLLTAFEFGNAGAVVLTPLFKVGKFLSAEEYQQKIIPVVVKMFSSTDRAMRIRLLQQMEQFIQYLDEPTVNTQIFPHVVHGFLDTNPAIREQTVKSMLLLAPKLNEANLNVELMKHFARLQAKDEQGPIRCNTTVCLGKIGSYLSASTRHRVLTSAFSRATRDPFAPSRVAGVLGFAATHNLYSMNDCAQKILPVLCGLTVDPEKSVRDQAFKAIRSFLSKLESVSEDPTQLEEVEKDVHAASSPGMGGAAASWAGWAVTGVSSLTSKLIRSHPTTAPTETNIPQRPTPEGVPAPAPTPVPATPTTSGHWETQEEDKDTAEDSSTADRWDDEDWGSLEQEAESVLAQQDDWSTGGQVSRASQVSNSDHKSSKSPESDWSSWEAEGSWEQGWQEPSSQEPPPDGTRLASEYNWGGPESSDKGDPFATLSARPSTQPRPDSWGEDNWEGLETDSRQVKAELARKKREERRREMEAKRAERKVAKGPMKLGARKLD
[5]
  binding: binds
